This is an account of results in the supplement of paper PMC10849652.

Protein sequences, listed by entry. Tags and fused reporters are not part of them. Lines headed by an entry give the natural chain unless they say otherwise; changes in a name come on top.
UniProt Q14155: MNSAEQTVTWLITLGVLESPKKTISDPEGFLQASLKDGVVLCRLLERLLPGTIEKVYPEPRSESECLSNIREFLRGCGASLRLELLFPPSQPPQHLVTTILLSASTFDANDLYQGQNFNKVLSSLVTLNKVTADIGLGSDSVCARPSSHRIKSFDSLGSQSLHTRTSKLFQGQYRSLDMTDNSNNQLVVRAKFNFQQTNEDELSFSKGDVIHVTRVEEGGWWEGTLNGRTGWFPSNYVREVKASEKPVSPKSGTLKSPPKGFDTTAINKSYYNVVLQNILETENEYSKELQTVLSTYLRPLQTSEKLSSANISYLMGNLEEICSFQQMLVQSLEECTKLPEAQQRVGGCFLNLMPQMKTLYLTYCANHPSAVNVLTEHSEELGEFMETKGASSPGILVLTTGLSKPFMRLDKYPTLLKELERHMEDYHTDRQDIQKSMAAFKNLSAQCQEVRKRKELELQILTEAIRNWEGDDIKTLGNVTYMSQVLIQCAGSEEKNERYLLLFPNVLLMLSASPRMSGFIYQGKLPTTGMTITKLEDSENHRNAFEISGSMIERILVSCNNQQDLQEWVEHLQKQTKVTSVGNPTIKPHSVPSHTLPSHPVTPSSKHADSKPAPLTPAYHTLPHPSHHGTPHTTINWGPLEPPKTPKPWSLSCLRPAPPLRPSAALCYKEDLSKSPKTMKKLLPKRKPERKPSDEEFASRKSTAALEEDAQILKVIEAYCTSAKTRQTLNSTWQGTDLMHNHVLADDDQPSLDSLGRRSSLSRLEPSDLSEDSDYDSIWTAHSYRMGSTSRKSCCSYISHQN
UniProt Q9NP61: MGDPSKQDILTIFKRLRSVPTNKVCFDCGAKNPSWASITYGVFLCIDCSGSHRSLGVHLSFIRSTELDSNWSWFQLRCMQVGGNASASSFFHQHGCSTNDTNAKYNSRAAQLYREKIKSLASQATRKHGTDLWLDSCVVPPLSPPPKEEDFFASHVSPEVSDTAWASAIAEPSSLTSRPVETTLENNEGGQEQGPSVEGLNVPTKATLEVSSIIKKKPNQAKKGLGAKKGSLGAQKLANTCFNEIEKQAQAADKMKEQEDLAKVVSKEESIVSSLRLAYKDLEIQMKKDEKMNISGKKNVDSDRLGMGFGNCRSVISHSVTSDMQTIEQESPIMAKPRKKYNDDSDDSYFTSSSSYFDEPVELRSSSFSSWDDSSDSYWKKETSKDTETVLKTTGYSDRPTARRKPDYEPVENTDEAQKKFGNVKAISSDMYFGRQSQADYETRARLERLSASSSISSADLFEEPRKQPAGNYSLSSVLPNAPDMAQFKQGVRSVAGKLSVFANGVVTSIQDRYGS
UniProt Q9BTT0: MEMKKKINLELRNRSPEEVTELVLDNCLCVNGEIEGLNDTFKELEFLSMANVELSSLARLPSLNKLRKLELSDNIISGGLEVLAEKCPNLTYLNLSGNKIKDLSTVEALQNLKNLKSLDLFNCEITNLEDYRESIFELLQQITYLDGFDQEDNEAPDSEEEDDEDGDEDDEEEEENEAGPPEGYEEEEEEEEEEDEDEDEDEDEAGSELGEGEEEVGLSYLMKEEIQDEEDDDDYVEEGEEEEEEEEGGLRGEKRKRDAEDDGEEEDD
UniProt Q9Y2T2: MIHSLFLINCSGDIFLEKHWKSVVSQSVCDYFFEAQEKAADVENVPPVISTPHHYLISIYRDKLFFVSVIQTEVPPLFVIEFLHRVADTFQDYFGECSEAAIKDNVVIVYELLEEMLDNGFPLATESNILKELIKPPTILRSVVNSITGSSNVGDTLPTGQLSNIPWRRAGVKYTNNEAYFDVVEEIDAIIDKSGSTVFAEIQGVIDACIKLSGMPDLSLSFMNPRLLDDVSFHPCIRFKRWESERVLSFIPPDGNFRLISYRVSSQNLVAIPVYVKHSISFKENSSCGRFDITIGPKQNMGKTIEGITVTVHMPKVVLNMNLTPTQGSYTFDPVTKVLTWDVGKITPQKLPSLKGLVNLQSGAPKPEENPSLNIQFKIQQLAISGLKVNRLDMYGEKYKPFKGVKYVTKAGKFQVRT
UniProt Q96GX9: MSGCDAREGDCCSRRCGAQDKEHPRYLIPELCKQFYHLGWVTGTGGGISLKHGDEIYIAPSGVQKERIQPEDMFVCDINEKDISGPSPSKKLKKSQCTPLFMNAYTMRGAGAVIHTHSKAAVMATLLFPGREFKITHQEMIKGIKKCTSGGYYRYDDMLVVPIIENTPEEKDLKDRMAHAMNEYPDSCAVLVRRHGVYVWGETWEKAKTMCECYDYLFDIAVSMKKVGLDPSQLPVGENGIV
UniProt P13798: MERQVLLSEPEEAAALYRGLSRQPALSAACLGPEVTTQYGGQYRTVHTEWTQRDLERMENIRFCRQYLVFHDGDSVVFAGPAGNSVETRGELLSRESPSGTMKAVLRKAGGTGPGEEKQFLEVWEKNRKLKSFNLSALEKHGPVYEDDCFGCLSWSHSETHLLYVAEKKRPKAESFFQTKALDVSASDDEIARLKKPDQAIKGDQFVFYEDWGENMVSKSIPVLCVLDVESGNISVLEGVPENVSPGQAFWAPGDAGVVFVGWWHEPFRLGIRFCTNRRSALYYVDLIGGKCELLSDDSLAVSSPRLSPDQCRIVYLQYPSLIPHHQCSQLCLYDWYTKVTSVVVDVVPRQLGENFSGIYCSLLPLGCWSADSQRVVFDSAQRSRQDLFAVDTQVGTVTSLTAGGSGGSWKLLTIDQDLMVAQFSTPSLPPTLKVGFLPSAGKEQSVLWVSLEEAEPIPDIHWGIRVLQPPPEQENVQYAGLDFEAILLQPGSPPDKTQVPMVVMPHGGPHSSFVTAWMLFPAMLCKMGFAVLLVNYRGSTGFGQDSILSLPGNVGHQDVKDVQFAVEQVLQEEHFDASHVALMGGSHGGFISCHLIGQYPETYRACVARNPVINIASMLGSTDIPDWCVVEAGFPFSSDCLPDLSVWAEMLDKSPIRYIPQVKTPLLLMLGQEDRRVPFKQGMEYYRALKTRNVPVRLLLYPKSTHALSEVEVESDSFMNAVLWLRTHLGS
UniProt Q8NB46: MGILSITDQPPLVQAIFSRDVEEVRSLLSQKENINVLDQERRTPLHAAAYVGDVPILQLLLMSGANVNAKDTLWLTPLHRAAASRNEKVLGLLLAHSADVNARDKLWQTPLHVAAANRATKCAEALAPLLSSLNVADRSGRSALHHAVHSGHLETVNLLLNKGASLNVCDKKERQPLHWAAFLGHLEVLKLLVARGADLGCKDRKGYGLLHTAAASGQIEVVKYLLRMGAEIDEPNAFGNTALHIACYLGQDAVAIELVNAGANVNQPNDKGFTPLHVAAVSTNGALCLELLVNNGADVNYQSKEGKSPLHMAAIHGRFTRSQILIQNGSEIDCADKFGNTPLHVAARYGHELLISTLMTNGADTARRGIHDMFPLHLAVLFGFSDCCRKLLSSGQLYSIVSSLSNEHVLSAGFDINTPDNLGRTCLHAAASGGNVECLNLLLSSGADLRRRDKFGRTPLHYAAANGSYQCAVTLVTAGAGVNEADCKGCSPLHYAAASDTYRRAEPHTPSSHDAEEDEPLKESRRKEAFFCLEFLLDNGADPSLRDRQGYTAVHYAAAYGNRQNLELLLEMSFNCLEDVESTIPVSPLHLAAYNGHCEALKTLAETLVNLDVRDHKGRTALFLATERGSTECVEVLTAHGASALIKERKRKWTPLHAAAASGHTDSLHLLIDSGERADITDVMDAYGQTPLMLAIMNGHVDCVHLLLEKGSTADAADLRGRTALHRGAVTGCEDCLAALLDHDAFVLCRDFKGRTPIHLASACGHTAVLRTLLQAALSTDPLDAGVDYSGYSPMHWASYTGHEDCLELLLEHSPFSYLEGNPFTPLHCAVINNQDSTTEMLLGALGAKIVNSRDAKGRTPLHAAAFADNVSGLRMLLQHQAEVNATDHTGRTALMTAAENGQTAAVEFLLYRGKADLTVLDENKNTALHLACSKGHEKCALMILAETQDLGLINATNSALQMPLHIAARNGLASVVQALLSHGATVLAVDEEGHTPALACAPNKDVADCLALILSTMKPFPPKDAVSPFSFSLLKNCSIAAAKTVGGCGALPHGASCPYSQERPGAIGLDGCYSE
UniProt O14727: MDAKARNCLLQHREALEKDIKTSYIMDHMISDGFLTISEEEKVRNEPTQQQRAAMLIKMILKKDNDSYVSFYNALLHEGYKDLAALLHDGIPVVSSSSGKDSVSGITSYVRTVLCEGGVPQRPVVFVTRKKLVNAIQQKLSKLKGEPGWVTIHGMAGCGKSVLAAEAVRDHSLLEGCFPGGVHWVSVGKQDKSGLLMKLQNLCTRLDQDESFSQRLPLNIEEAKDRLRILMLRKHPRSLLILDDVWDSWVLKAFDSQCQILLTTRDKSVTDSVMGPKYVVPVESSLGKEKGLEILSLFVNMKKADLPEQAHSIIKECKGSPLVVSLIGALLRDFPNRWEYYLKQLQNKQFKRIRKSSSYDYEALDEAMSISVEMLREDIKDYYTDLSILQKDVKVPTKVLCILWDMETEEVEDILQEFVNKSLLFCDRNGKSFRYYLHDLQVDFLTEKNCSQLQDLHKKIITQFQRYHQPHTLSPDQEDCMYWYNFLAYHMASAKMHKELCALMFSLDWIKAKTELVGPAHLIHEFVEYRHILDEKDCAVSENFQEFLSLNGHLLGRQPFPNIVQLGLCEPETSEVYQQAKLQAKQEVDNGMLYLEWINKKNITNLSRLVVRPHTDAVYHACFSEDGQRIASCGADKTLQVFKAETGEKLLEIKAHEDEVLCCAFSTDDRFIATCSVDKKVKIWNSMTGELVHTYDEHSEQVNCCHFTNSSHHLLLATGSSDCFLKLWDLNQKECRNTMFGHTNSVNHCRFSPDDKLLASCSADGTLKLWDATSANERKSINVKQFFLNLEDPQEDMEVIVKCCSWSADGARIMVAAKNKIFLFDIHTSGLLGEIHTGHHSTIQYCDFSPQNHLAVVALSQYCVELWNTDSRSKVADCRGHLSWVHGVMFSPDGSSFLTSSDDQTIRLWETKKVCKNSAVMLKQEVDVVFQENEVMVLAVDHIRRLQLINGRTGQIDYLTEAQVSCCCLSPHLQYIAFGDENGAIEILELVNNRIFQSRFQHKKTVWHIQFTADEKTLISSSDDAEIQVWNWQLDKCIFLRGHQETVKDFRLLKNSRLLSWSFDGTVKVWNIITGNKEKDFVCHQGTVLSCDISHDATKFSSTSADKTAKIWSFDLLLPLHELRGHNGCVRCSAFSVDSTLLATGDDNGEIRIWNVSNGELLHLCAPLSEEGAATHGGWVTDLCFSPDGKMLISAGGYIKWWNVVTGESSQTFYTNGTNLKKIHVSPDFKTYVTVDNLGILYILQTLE
UniProt Q9Y587: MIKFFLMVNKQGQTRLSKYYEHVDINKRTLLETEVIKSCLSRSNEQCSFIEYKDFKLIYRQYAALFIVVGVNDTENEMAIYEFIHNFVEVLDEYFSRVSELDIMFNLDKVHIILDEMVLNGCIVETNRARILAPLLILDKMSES
UniProt P39687: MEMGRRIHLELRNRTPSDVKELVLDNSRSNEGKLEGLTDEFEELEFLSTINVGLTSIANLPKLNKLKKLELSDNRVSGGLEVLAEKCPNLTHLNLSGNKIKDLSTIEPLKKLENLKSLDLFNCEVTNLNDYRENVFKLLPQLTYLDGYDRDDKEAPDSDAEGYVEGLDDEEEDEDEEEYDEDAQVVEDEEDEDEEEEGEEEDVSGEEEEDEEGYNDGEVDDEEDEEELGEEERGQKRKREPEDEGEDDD
UniProt P48444: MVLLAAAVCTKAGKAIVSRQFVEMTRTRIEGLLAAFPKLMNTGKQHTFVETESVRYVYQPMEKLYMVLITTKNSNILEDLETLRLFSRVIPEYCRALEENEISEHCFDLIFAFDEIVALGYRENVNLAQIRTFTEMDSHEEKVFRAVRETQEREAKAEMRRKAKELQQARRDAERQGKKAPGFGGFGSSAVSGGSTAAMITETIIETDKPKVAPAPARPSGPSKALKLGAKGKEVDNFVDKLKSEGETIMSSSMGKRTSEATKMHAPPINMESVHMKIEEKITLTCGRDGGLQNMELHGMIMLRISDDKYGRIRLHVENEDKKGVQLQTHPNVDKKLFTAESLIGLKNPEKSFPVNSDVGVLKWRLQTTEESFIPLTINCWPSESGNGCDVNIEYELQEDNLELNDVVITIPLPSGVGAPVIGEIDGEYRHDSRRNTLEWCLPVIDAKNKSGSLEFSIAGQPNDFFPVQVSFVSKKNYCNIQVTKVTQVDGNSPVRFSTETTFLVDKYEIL
UniProt P78540: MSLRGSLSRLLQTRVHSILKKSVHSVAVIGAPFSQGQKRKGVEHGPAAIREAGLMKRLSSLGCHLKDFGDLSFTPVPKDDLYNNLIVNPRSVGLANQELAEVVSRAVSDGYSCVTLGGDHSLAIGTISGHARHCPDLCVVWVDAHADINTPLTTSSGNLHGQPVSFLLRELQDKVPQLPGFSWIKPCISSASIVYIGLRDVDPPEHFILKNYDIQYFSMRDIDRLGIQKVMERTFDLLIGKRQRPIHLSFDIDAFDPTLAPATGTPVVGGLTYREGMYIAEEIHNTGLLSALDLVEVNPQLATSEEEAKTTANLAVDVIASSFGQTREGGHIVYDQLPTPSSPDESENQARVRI

The other results are listed elsewhere or left out.

Compound in one assay: C/C(=N\NC(=O)C1=CC(=CC=C1)S(=O)(=O)N2CCOCC2)/C3=C(C=CC(=C3)Cl)O
Description: log2 fold change, soluble protein after heating vs DMSO (PISA); higher = thermal stabilisation; K562 cells, 10 uM, 30 min; active = over 0.2 and 3.5 SD of the protein, either way, in both replicates (recomputed). The essentials: (§1)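 K562 cells at 2×10^6 cells/mL were exposed to 10 μM compound for 30 min, then aliquots were heated for 3 min across 48°C-58°C, pooled, and extracted in PBS containing 0.5% NP-40 at 4°C. The supernatant after 21,000xg for 90 min was taken as soluble protein and measured by TMTpro 16plex LC-MS/MS with channel sums equalised. Thermal stability is reported relative to control samples, with values from duplicates. Fold changes are given on a log2 scale.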
Regarding ARFGAP1 (UniProt Q8N6T3), the log2 fold change was inactive: 0.131.

Regarding ARHGEF7 isoform 5 (UniProt Q14155), the log2 fold change was inactive: 0.054.

In the case of ARFGAP3 (UniProt Q9NP61), the log2 fold change was inactive: 0.079.

Consider ANP32E (UniProt Q9BTT0), for which the log2 fold change is inactive: 0.038.

On to ARHGAP4 isoform 2 (UniProt P98171), for which the log2 fold change was inactive: -0.338.

For AP3M1 (UniProt Q9Y2T2), the log2 fold change is inactive: 0.053.

As to APH1A (UniProt Q96BI3), the log2 fold change was inactive: -0.046.

In the case of APIP (UniProt Q96GX9), the log2 fold change is inactive: 0.006.

Consider APEH (UniProt P13798), for which the log2 fold change was inactive: -0.006.

In the case of APOH (UniProt P02749), the log2 fold change was inactive: -0.028.

In the case of AREG (UniProt P15514), the log2 fold change was inactive: -0.022.

In the case of ANKRD52 (UniProt Q8NB46), the log2 fold change was inactive: 0.142.

Regarding APAF1 (UniProt O14727), the log2 fold change was inactive: 0.066.

In the case of AP4S1 (UniProt Q9Y587), the log2 fold change is inactive: -0.013.

ANP32A (UniProt P39687): the log2 fold change is inactive: 0.019.

With ARCN1 (UniProt P48444), the log2 fold change was inactive: 0.011.

Compound in a further assay: C1=CC(=C(C=C1Cl)C2=NC3=NC=CN=C3C(=N2)NC4=CC=NC=C4)F
The description is as above. An outline of the steps:
as §1
For the target ARHGAP35 (UniProt Q9NRY4), the log2 fold change was inactive: -0.175.

Take APOL2 (UniProt J3KQL8): the log2 fold change is inactive: -0.058.

ARHGAP18 (UniProt Q8N392): the log2 fold change was inactive: -0.142.

ARHGAP17 (UniProt Q68EM7): the log2 fold change was inactive: -0.076.

In the case of AP1B1 (UniProt Q10567), the log2 fold change is inactive: 0.008.

As for ARFRP1 (UniProt Q13795), the log2 fold change is inactive: 0.096.

Take APOBEC3C (UniProt Q9NRW3): the log2 fold change was inactive: -0.239.

APTX (UniProt Q7Z2E3): the log2 fold change was inactive: -0.078.

Turning to ANO6 isoform 2 (UniProt Q4KMQ2), the log2 fold change was inactive: 0.017.

Turning to ANXA7 (UniProt P20073), the log2 fold change was inactive: 0.088.

For the target AQR (UniProt O60306), the log2 fold change is inactive: -0.128.

For ARHGAP25 isoform 4 (UniProt P42331), the log2 fold change was inactive: 0.109.

For the target AP1M1 (UniProt Q9BXS5), the log2 fold change was inactive: -0.009.

Regarding ARHGEF12 (UniProt Q9NZN5), the log2 fold change was inactive: -0.257.

Consider ARG2 (UniProt P78540), for which the log2 fold change is inactive: 0.002.

Regarding APC (UniProt P25054), the log2 fold change is inactive: -0.165.

Regarding APPL1 (UniProt Q9UKG1), the log2 fold change is inactive: 0.055.

In the case of ANTXR2 isoform 4 (UniProt P58335), the log2 fold change is inactive: -0.009.

As for ANAPC7 (UniProt Q9UJX3), the log2 fold change was inactive: -0.032.

In the case of ARFGAP1 (UniProt Q8N6T3), the log2 fold change is inactive: 0.086.

With ARHGEF7 isoform 5 (UniProt Q14155), the log2 fold change was inactive: 0.015.

On to ARFGAP3 (UniProt Q9NP61), for which the log2 fold change is inactive: 0.048.

As to ANP32E (UniProt Q9BTT0), the log2 fold change is inactive: 0.114.

With AP3M1 (UniProt Q9Y2T2), the log2 fold change was inactive: 0.04.

For APIP (UniProt Q96GX9), the log2 fold change is inactive: 0.025.

As to APEH (UniProt P13798), the log2 fold change was inactive: 0.013.

In the case of ANKRD52 (UniProt Q8NB46), the log2 fold change was inactive: -0.121.

On to APAF1 (UniProt O14727), for which the log2 fold change is inactive: -0.073.

As to AP4S1 (UniProt Q9Y587), the log2 fold change was inactive: -0.015.

In the case of ANP32A (UniProt P39687), the log2 fold change is inactive: 0.092.

Regarding ARCN1 (UniProt P48444), the log2 fold change was inactive: 0.094.

Compound in the next assay: C1=CC(=CC=C1C2=NC3=C(N2)C=C(C=C3)C(=O)N)OC4=CC=C(C=C4)Cl
Described as above. The essentials: as §1
Turning to ARHGAP35 (UniProt Q9NRY4), the log2 fold change is inactive: -0.002.

For ANKH (UniProt Q9HCJ1), the log2 fold change was inactive: -0.15.

With APOL2 (UniProt J3KQL8), the log2 fold change was inactive: 0.028.

ARHGAP18 (UniProt Q8N392): the log2 fold change is inactive: -0.071.

On to ARHGAP17 (UniProt Q68EM7), for which the log2 fold change was inactive: -0.056.

Consider AP1B1 (UniProt Q10567), for which the log2 fold change is inactive: -0.017.

AP4B1 (UniProt Q9Y6B7): the log2 fold change was inactive: -0.054.

For the target ARFRP1 (UniProt Q13795), the log2 fold change is inactive: 0.008.

With APOBEC3C (UniProt Q9NRW3), the log2 fold change was inactive: 0.134.

On to APTX (UniProt Q7Z2E3), for which the log2 fold change is inactive: 0.072.

As to ANO6 isoform 2 (UniProt Q4KMQ2), the log2 fold change was inactive: 0.009.

As to ANK2 (UniProt Q01484), the log2 fold change was inactive: -0.028.

Consider ANXA7 (UniProt P20073), for which the log2 fold change is inactive: 0.006.

With AQR (UniProt O60306), the log2 fold change is inactive: 0.043.

Regarding ANPEP (UniProt P15144), the log2 fold change is inactive: 0.089.

In the case of ARHGAP25 isoform 4 (UniProt P42331), the log2 fold change is inactive: -0.284.

AP1M1 (UniProt Q9BXS5): the log2 fold change is inactive: 0.015.

For ARHGEF12 (UniProt Q9NZN5), the log2 fold change was inactive: 0.051.

Take ARG2 (UniProt P78540): the log2 fold change is inactive: 0.018.

APC (UniProt P25054): the log2 fold change was inactive: 0.107.

As for APPL1 (UniProt Q9UKG1), the log2 fold change was inactive: 0.012.

As for ANTXR2 isoform 4 (UniProt P58335), the log2 fold change is inactive: 0.018.

ANAPC7 (UniProt Q9UJX3): the log2 fold change is inactive: 0.065.

On to ARFGAP1 (UniProt Q8N6T3), for which the log2 fold change is inactive: -0.072.

With ARHGEF7 isoform 5 (UniProt Q14155), the log2 fold change is inactive: -0.017.

For ARFGAP3 (UniProt Q9NP61), the log2 fold change is inactive: 0.001.

ANP32E (UniProt Q9BTT0): the log2 fold change is inactive: -0.062.

In the case of ARHGAP4 isoform 2 (UniProt P98171), the log2 fold change is inactive: 0.033.

With AP3M1 (UniProt Q9Y2T2), the log2 fold change is inactive: -0.002.

For APH1A (UniProt Q96BI3), the log2 fold change was inactive: 0.052.

Regarding APIP (UniProt Q96GX9), the log2 fold change was inactive: -0.004.

As for APEH (UniProt P13798), the log2 fold change is inactive: 0.011.

For the target APOH (UniProt P02749), the log2 fold change was inactive: 0.051.

For AREG (UniProt P15514), the log2 fold change is inactive: 0.001.

Turning to ANKRD52 (UniProt Q8NB46), the log2 fold change was inactive: 0.021.

Turning to APAF1 (UniProt O14727), the log2 fold change is inactive: 0.141.

With AP4S1 (UniProt Q9Y587), the log2 fold change is inactive: 0.078.

With ANP32A (UniProt P39687), the log2 fold change was inactive: 0.009.

In the case of ARCN1 (UniProt P48444), the log2 fold change is inactive: 0.005.
